Measurements reported in paper PMC8113555.
Construct, isoform or probe ends are uncertain for at least one entry. For some of these results: The comparison behind a weaker result is the experiment's own reference, which may not be listed here. For some of these results: Results from cells or extracts need not show a direct contact. For some of these results: A negative result means that nothing was seen under these conditions. For some of these results: At least one verdict rests on a figure or table, not on a statement of the authors.

By UniProt entry, the sequences of proteins in these tests, tags left out.
UniProt Q22429, entry or part of it: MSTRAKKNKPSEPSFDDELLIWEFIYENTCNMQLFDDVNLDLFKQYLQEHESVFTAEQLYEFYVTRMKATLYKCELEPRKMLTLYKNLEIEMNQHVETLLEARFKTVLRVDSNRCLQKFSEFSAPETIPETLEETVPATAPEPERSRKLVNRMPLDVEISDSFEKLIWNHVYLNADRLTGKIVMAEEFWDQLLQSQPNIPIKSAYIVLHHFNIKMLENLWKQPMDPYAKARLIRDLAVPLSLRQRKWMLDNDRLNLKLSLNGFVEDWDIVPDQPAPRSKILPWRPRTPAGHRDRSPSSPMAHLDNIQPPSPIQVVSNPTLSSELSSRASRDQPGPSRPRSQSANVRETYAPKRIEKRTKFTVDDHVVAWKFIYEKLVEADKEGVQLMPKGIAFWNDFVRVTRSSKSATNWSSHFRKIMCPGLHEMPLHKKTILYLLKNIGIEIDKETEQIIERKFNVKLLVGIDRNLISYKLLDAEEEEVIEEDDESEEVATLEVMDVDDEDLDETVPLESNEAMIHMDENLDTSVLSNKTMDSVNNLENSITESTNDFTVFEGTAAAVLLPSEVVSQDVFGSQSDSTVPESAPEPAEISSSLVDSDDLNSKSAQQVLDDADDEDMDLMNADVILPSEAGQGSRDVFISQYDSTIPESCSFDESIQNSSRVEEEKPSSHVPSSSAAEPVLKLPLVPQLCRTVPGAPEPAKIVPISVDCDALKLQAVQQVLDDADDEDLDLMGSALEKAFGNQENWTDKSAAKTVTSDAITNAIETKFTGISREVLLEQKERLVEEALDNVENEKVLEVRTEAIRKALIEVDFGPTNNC

Legend:
[1] = biological target: TEBP-2-His5 (Caenorhabditis elegans) (UniProt Q22429); experiment: fluorescence polarization; settings: FP: 20 mM HEPES pH 7.0, 100 mM NaCl, 5% glycerol, 20 nM probe, 10 min at RT; recombinant protein; protein details: His5 (C-terminal by primers); label: FITC on strand 1 (5')
[2] = biological target: TEBP-1-His5 (Caenorhabditis elegans) (UniProt O62329); experiment: fluorescence polarization; settings: FP: 20 mM HEPES pH 7.0, 100 mM NaCl, 5% glycerol, 20 nM probe, 10 min at RT; recombinant protein; protein details: His5 (C-terminal by primers); label: FITC on strand 1 (5')
[3] = biological target: TEBP-1::3xFLAG (Caenorhabditis elegans) (UniProt O62329); experiment: pull-down; settings: pull-down: 50 mM Tris/HCl pH 7.5, 150 mM NaCl, 0.5% NP-40, 5 mM MgCl2, 1 mM DTT, salmon sperm DNA, 90 min at 4 C, protein in an extract, protein details: C-terminal 3xFLAG
[4] = biological target: TEBP-2::GFP (Caenorhabditis elegans) (UniProt Q22429); experiment: pull-down; settings: pull-down: 50 mM Tris/HCl pH 7.5, 150 mM NaCl, 0.5% NP-40, 5 mM MgCl2, 1 mM DTT, salmon sperm DNA, 90 min at 4 C, protein in an extract, protein details: C-terminal GFP
[5] = label: biotin 5', single-stranded DNA

Sequence	binding result [1]	binding result [2]	binding result [3, 5]	binding result [4, 5]	further results
CTGGGCTTAGGCACAAGGT (double strand) [1.5x G-rich ds]	binds more weakly	binds more weakly			
TTCGTGACTCGAACGATGGGAGGTCAAGGTCAAGGTCAAGGTCAAGGTCAAGCCCTGGATTACGAACTGC (double strand) [5x AGGTCA control ds]					binding result ([3]; label: biotin 5' on strand 1): no binding; binding result ([4]; label: biotin 5' on strand 1): no binding
GCAGTTCGTAATCCAGGGCTGCCTAAGCCTAAGCCTAAGCCTAAGCCTAACCCATCGTTCGAGTCACGAA [5x GCCTAA ss (C-rich)]			no binding	no binding	
CTGTTAGGCTTAGGCGACT (double strand) [2.0x TTAGGC ds]	binds more weakly	binds more weakly			
CTGTTAGGCTTATCAAGGT (double strand) [1.5x T-rich ds]	binds more weakly	binds more weakly			
TTCGTGACTCGAACGATGGGAGGTCAAGGTCAAGGTCAAGGTCAAGGTCAAGCCCTGGATTACGAACTGC [5x AGGTCA control ss]			no binding	no binding	
TTCGTGACTCGAACGATGGGTTAGGCTTAGGCTTAGGCTTAGGCTTAGGCAGCCCTGGATTACGAACTGC [5x TTAGGC ss (G-rich)]			no binding	no binding	
TTCGTGACTCGAACGATGGGTTAGGCTTAGGCTTAGGCTTAGGCTTAGGCAGCCCTGGATTACGAACTGC (double strand) [5x TTAGGC ds]					binding result ([3]; label: biotin 5' on strand 1): binds; binding result ([4]; label: biotin 5' on strand 1): binds
